Source: article PMC3143151
Results are given in words; binding and its absence hold for the method and conditions named.

Key:
human C17-V5H8 (human) [1] = target: human C17-V5H8 (human) (UniProt Q9NRR1); test: SDS-PAGE under reducing and non-reducing conditions; purified human C17-V5H8, reducing and non-reducing loading conditions, Coomassie staining; both purified
human C17-V5H8 (human) [2] = target: human C17-V5H8 (human) (UniProt Q9NRR1); test: SEC; affinity-purified human C17-V5H8 loaded; A280 nm elution profile against marker proteins; both purified

binding (human C17-V5H8 (human) [1]): no binding
binding (human C17-V5H8 (human) [2]): no binding
B1: human C17-V5H8 (protein, UniProt Q9NRR1 23-136)
chain: TPPTCYSRMRALSQEITRDFNLLQVSEPSEPCVRYLPRLYLDIHNYCVLDKLRDFVASPPCWKVAQVDSLKDKARKLYTIMNSFCRRDLVFLLDDCNALEYPIPVTTVLPDRQR
